Out of some 320,000 compounds screened, about 620 (0.19%) were called active. The shares of active, inactive and inconclusive entries below differ from those in the screen. Cut-off read from the data, not from the text of the source: active = activation above about 80%; inconclusive = between about 30% and that limit; inactive = weaker than that.
These compounds were tested against Transient receptor potential cation channel subfamily V member 1 (Homo sapiens) (UniProt Q8NER1) (assay: HTS Assay for Compounds that Act as Agonists of the Vanilloid Receptor 1). Settings: TRPV1-expressing cells, Fluo-8 calcium influx, agonist mode; at 8.33 µM, hits give high values.
How it was run: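 Fluo-8 calcium influx in TRPV1-expressing cells, kinetic read (ex 480/em 520 nm). Compound added and read 3 min for agonist activity, followed by capsaicin at EC20 final and 2 min further read for enhancement.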
Note: 0% is about no effect.

By UniProt entry, the sequences of proteins in these tests, tags left out.
UniProt Q8NER1, whole entry, looked up: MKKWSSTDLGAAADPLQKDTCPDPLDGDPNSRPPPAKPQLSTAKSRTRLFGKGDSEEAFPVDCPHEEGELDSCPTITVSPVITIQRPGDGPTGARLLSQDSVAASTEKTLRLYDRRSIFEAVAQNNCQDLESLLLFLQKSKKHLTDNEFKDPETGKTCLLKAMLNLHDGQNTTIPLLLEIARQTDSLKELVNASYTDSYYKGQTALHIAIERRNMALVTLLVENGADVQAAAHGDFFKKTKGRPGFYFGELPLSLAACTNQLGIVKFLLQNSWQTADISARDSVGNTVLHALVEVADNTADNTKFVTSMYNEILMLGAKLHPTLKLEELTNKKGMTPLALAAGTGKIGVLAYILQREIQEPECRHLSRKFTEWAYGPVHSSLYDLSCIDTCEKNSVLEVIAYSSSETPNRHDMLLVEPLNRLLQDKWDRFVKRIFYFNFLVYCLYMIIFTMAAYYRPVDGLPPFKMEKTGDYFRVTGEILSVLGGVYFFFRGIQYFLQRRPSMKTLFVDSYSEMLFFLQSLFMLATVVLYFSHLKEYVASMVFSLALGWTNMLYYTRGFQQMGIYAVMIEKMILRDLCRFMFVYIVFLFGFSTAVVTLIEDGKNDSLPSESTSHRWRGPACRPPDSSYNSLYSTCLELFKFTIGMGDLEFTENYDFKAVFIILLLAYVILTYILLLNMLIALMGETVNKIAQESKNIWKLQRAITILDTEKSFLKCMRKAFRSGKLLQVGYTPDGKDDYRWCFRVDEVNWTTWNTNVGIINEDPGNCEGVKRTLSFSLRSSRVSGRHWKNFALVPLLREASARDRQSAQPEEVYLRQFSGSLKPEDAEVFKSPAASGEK

| Structure (SMILES) | activation |
| --- | --- |
| NC1=NC[C@H](CC2CCCCC2)N1CCc1cc(C(F)(F)F)cc(C(F)(F)F)c1 | inconclusive: 30.3% |
| O=C(COC(=O)Cc1ccc(Br)cc1)NCC1CCCCC1 | inconclusive: 48.9% |
| CCC1=Nc2cc(C(=O)NCCCOC(C)C)ccc2Sc2ccccc21 | inconclusive: 40.4% |
| Cc1ccc(NC(=S)N(C)C(c2ccccc2)c2ccccc2)cc1C | inactive: 21.8% |
| CN1CCN(C(CNC(=O)Nc2ccc(Cl)cc2)c2ccc(F)cc2)CC1 (stereo not given) | inactive: 3.69% |
| CCOP(=O)(OCC)c1nc(-c2cccc3ccccc23)oc1NCc1ccccc1 | inconclusive: 33.7% |
| O=C(O)CCc1nn2c3ccccc3n(CC(=O)c3ccccc3)c2nc1=O | inactive: 2.38% |
| CCc1ccc(NC(=O)c2c(C(=O)Nc3ccccc3)sc3nc(C)cc(=O)n23)cc1 | inconclusive: 66.7% |
| O=C(NCc1ccccc1Cl)C1CCCN(c2ncnc3c2nc2n3CCCCC2)C1 (stereo not given) | active: 80.7% |
| CC(C)=CC(=O)Nc1ccc(Cl)cc1 | inconclusive: 62.8% |
| O=C(COC(=O)c1cc(-c2cccs2)nc2ccccc12)NC1CCS(=O)(=O)C1 (stereo not given) | inconclusive: 32.6% |
| Cc1ccc2[nH]c(CNC(=O)c3ccc(F)cc3)cc2c1 | inconclusive: 41.1% |
| Cc1ccc(NC(=O)NCCCl)cc1S(=O)(=O)N1CCOCC1 | inactive: 0.33% |
| O=C(CN1CCC(n2nnc3cc(C(F)(F)F)ccc32)CC1)NCc1cccs1 | inconclusive: 32.1% |
| Oc1ccccc1/C=N/Nc1nn[nH]n1 | inactive: -2.61% |
| O=C(OCCN1C(=O)c2cccc3c(N4CCOCC4)ccc(c23)C1=O)c1ccc(Cl)cc1Cl | inconclusive: 65.3% |
| Cc1ccc(C(=O)N2CCN(c3ccccc3Cl)CC2)cc1[N+](=O)[O-] | inconclusive: 34.5% |
| CCc1cccc(CC)c1NC(=S)NC(C)c1ccccc1 (stereo not given) | inactive: 25% |
| COc1ccc([C@H]2CC(=O)C=C(c3ccc(Cl)c(C(F)(F)F)c3)C2)cc1OC | inconclusive: 48.7% |
| CC(C)(C)c1ccc(C(=O)/C(C#N)=C/c2cccs2)cc1 | inconclusive: 43.9% |
| CCOC(=O)c1ccc(NC(=O)CSc2nc(-c3cccs3)cc(C(F)(F)F)c2C#N)cc1 | inactive: -0.885% |
| O=C1c2cccnc2C(Nc2ccc(S(=O)(=O)N3CCCCCC3)cc2)N1Cc1ccccc1 (stereo not given) | inconclusive: 41.9% |
| CC(C)(C)c1cc(C(=O)NNC(=O)c2ccc(Cl)cc2)no1 | active: 81.7% |
| Cc1ccc(C(=O)C(C)OC(=O)Cc2c[nH]c3ccccc23)cc1 (stereo not given) | inactive: 5.45% |
| COc1ccc(CC(=O)Nc2ccc(F)c(F)c2F)cc1S(=O)(=O)N1CCOCC1 | inactive: 1.61% |
| CCC(=O)N(CCC1(C(C)C)CCOC(C)(C)C1)C(C)c1cccs1 (stereo not given) | inconclusive: 38.3% |
| COc1ccc(C2C3=C(Nc4ncnn42)c2ccccc2CC3)cc1OC (stereo not given) | inactive: -3.1% |
| O=C(c1c[nH]c(C(=O)N2CCN(c3ccccc3F)CC2)c1)c1cccc(Cl)c1Cl | inconclusive: 42.5% |

| Structure (SMILES) | activation |
| --- | --- |
| O=C(c1ccc2c(c1)OCO2)C1CCCN(Cc2ccc3cccc(F)c3n2)C1 (stereo not given) | inactive: 5.37% |
| Cc1noc(C)c1COc1ccccc1C(=O)NNC(=O)c1ccc(F)cc1 | inconclusive: 36.9% |
| CCSc1cc(N2CCCC2)nc(-c2cccc(C)c2)n1 | inactive: 10.2% |
| Cc1c(C#N)c(N=CN(C)C)c(C(=O)c2ccc(Br)cc2)n1-c1ccccc1 | inconclusive: 32.1% |
| Cc1cccc(NC(=O)CN(C)S(=O)(=O)c2ccc(Cl)cc2)n1 | inactive: -2.22% |
| Cn1ncc(C(=O)Nc2ccc(Cl)cc2)c1C(F)(F)F | inconclusive: 60.9% |
| O=C(NCc1ccc2c(c1)OCO2)C1CC(=O)N(C2CCCCCCC2)C1 (stereo not given) | inconclusive: 30.4% |
| O=C(CSc1n[nH]c(-c2ccncc2)n1)Nc1ccc(Br)cc1 | inactive: -5.86% |
| CC(C)CC(=O)N1CCN(S(=O)(=O)c2ccc3ccccc3c2)CC1 | inconclusive: 32.4% |
| COc1ccc(SC[C@H](Cc2ccccc2)N2CCN(CCc3ccccc3)CCC2=O)cc1 | inconclusive: 31.7% |
| CCOC(=O)c1[nH]c2cc3c(cc2c1NC(=O)CN1CCC(C)CC1)OCO3 | inconclusive: 69.8% |
| O=C(N/N=C1\C2CN3CCN(C2)CC1(c1ccccc1)C3)c1ccc(F)cc1 | inconclusive: 65.1% |
| S=C(NCC1(c2ccccc2)CCCC1)Nc1ccccc1 | inconclusive: 53.4% |
| O=C(C1=C[C@@H](C2CCCCC2)C[C@@H](OCCCCO)O1)N1CCN(Cc2ccccc2)CC1 | inconclusive: 42.8% |
| Cc1cccc(-c2noc(CCC(=O)Nc3ccc(C(N)=O)cc3)n2)c1 | active: 80.8% |
| Cc1ccc(NC(=O)c2ccc([N+](=O)[O-])o2)cc1C | inconclusive: 60.8% |
| COc1ccccc1-n1c(Cc2cccs2)n[nH]c1=S | inactive: 2.02% |
| CCOC(=O)[C@H]1[C@H]2COc3ccc(Br)cc3[C@@H]2N2C(=O)c3ccc(Cl)cc3NC(=O)[C@@]12C | inconclusive: 44.6% |
| CCc1c(C#N)c(SCCC(=O)Nc2cccc(OC)c2)nc2c1C(=O)CC(C)(C)C2 | inconclusive: 32.4% |
| COc1ccc(NC(=O)c2cc([N+](=O)[O-])nn2Cc2ccccc2)c(C)c1 | inconclusive: 35.9% |
| COC(=O)c1ccc(CSc2nnc(Nc3ccc(OC)cc3)s2)o1 | inactive: 9.26% |
| CCn1c(COc2ccccc2)nc2ccccc21 | inconclusive: 43.6% |
| Cc1ccccc1-c1cc(C(=O)N2CCCC2)c2ccccc2n1 | inactive: 13.4% |
| O=C(Nc1ccc2oc(=O)ccc2c1)c1ccc(-c2cccc(Cl)c2)o1 | inconclusive: 57.9% |
| Cc1cc(C(=O)NC2CCCCC2)c(C)n1-c1ccc(F)cc1 | inconclusive: 36.7% |
| Cc1nn(CCCC(=O)Nc2cc(Oc3ccc(F)cc3)cc([N+](=O)[O-])c2)c(C)c1[N+](=O)[O-] | inconclusive: 39.2% |
| C=CCn1c(SCC(=O)c2c(N)n(C)c(=O)n(C)c2=O)nc2sc(CC)cc2c1=O | inconclusive: 37.8% |

In the list so far, 2 have a tert-butyl group.

| Structure (SMILES) | activation |
| --- | --- |
| CC(C)(C)c1ccc(C(=O)/C(C#N)=C/c2cccs2)cc1 | inconclusive: 43.9% |
| CC(C)(C)c1cc(C(=O)NNC(=O)c2ccc(Cl)cc2)no1 | active: 81.7% |

From PubChem BioAssay AID540275 (National Center for Advancing Translational Sciences (NCATS), 2011)
